Assay results published in PMC10131429.
These are yes or no findings as the source states them, for the method shown. Binding seen in cells or lysates may run through a third protein. Some binding calls cover weakened binding; strength is not graded here.

Chains of the proteins cited; added tags and fusions are not shown.
UniProt Q04206: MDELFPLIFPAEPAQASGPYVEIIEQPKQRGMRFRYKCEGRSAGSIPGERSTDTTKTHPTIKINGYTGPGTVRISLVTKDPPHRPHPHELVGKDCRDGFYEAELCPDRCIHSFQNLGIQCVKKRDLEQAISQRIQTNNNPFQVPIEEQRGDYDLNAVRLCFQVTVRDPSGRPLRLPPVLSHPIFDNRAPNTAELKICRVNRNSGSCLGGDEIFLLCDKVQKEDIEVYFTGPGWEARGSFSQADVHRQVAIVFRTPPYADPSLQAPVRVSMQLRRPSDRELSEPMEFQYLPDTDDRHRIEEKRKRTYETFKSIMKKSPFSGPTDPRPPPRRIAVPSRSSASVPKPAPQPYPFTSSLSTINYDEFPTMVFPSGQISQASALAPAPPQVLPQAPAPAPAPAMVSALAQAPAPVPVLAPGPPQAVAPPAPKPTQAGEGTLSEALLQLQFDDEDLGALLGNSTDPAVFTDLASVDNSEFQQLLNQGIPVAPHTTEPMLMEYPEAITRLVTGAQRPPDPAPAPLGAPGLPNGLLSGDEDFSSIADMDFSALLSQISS
UniProt O43143: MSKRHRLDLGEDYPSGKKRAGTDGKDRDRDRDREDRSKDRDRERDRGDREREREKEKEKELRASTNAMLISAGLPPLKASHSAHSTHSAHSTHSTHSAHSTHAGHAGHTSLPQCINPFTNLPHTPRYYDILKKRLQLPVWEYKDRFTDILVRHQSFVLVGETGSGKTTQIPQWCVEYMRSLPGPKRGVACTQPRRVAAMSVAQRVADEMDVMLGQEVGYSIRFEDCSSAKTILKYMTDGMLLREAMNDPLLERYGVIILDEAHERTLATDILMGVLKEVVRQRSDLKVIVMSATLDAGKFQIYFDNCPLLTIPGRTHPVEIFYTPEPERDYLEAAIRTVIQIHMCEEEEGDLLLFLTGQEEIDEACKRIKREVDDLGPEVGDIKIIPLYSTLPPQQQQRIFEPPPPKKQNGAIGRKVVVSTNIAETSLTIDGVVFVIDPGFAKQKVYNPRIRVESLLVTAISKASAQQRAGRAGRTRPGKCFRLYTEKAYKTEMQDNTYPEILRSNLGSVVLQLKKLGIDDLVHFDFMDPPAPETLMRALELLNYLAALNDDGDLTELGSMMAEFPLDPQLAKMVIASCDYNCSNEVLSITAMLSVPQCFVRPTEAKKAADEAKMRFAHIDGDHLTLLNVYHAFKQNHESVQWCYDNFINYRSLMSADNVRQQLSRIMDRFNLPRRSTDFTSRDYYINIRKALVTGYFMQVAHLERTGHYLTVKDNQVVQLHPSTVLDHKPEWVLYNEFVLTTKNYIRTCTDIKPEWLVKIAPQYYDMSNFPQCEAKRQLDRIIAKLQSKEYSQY

Molecular target: NF-κB p65 (human (endogenous in BC cell lines)) (UniProt Q04206)
Test: co-IP; endogenous proteins in BC cells lysed by RIPA; lysate with anti-DHX15 or anti-NF-κB p65 at 4 °C overnight, Protein A/G PLUS Agarose, western blotting; also done after inhibition of circRNF10 (si-circRNF10), where the interaction increased

DEAH (Asp-Glu-Ala-His) box helicase 15 (from UniProt O43143 1-795)
binding: binds
